Data from PMC8062489, “Tgf-β1 transcriptionally promotes 90K expression: possible implications for cancer progression”.
Construct, isoform or probe ends are uncertain for at least one entry. Results from cells or extracts need not show a direct contact. For some assays here: No signal at the amounts used counts as a negative. For some assays here: At least one verdict was read from the data and is not stated in words by the source. For some assays here: Weaker means in comparison with the reference protein, sequence or condition of that experiment.

Assays:
[1] = tested on: USF1 (FRTL-5 nuclear extract) + USF2 (FRTL-5 nuclear extract); experiment: competition with a labelled probe; details: TGF-b1-treated cell extract, 20 mM HEPES (pH not stated), 0.1% NP40, 5 mM MgCl2, 50 mM KCl, 2% glycerol, 2 mM DTT, 50 ng/ml poly(dI-dC), room temperature, 20 ul, 5 ug nuclear extract, protein in an extract
[2] = tested on: USF1 (FRTL-5 nuclear extract) + USF2 (FRTL-5 nuclear extract); experiment: EMSA; details: 20 mM HEPES (pH not stated), 0.1% NP40, 5 mM MgCl2, 50 mM KCl, 2% glycerol, 2 mM DTT, 50 ng/ml poly(dI-dC), room temperature, 20 ul, 5 ug nuclear extract, protein in an extract
[3] = tested on: USF1 (FRTL-5 nuclear extract) + USF2 (FRTL-5 nuclear extract); experiment: EMSA supershift; details: TGF-b1-treated cell extract, anti-USF1 or anti-USF2; 20 mM HEPES (pH not stated), 0.1% NP40, 5 mM MgCl2, 50 mM KCl, 2% glycerol, 2 mM DTT, 50 ng/ml poly(dI-dC), room temperature, 20 ul, 5 ug nuclear extract; protein in an extract; label: 5'-32P as probe, unlabeled as competitor
[4] = unlabeled vs Oligo I probe, label: unlabeled competitor
[5] = 5H extract, unaltered vs Oligo I, label: 5'-32P

“AGAGATCTGACGTCAGACAGCTAG (double strand) [CRE]”: no binding [1, 4].
“CTGCCCTAAAATGTGTATTCCTAGGAAATG (double strand) [FBE (FAST-1 binding element)]”: no binding [1, 4].
“GCAACATCCGTCATGTGTTTTCTGGA (double strand) [CM3]”: binds [2, 5].
“GCAGCATCAGTCATGTGTTTTCTGGA (double strand) [CM2]”: binds [2, 5].
“GCAGCCTCAGGCATGTGTTTTCTGGA (double strand) [CM1]”: binds more weakly ([2]; 5H extract: nearly eliminated (3A), TGF-b1 extract: complex not duplicated (3D), label: 5'-32P).
“GCAGCCTCCGTCATCTGTTTCCTGGA (double strand) [TM1]”: binds more weakly ([2]; 5H extract, nearly eliminated, label: 5'-32P).
“GCAGCCTCCGTCATGGATTTTCTGGA (double strand) [CEM]”: no binding ([2]; TGF-b1-treated cell extract, label: 5'-32P).
“GCAGCCTCCGTCATGTGTTTCATGGA (double strand) [TM2]”: binds more weakly ([2]; 5H extract, partly attenuated, label: 5'-32P).
“GCAGCCTCCGTCATGTGTTTTCTGGA (double strand) [Oligo I]”: binds [3]; binds ([1]; 20x unlabeled self-competitor, label: 5'-32P as probe, unlabeled as competitor).
“GGAAGCAGACCACGGAGTCTGCTT (double strand) [EM]”: no binding ([2]; TGF-b1-treated cell extract, label: 5'-32P as probe, unlabeled as competitor); no binding ([1]; 20x unlabeled, label: 5'-32P as probe, unlabeled as competitor).
“GGAAGCAGACCACGTGGTCTGCTT (double strand) [EWT (E, consensus E-box)]”: binds ([2]; TGF-b1-treated cell extract, same mobility as Oligo I complex, label: 5'-32P as probe, unlabeled as competitor); binds ([1]; 20x unlabeled, inhibitory at same concentration as Oligo I, label: 5'-32P as probe, unlabeled as competitor).
